Assay results reported in US9206188B2, “Substituted pyrrolo[2,3-b]pyridines as ITK and JAK inhibitors” (Arrien Pharmaceuticals LLC, priority 2013, dated 2015).

How the values were obtained:
IL-4/STAT6 = assay: SelectScreen cell-based pathway profiling, IL-4/STAT6, STAT6-bla RA1, IL-4 stimulated; conditions: STAT6-bla RA1 cells, IL-4 stim, 10-point titration
[1] = system: IL-2 release from CD4+ T cells; assay: IL-2 release from CD4+ T cells using HTRF; type: cell-based; conditions: read-out: inhibition of IL-2 release from CD4+ T cells

With `C[C@@H]1CCN(C(=O)CC#N)C[C@@H]1N(C)c1ncnc2[nH]ccc12` [Tofacitinib] the IC50 (IL-4/STAT6) was 61 nM and the IC50 [1] was 1200 nM.
